This assay concerns the target PD-L1-his fusion protein (Homo sapiens (Human)) (UniProt Q9NZQ7). The assay can be described thus: ELISA, PD-L1-his coated, culture supernatant of the clone. For orientation: ELISA stands for enzyme-linked immunosorbent assay.

Chains of the proteins cited; added tags and fusions are not shown. Lines headed by an entry give the natural chain unless they say otherwise; changes in a name come on top.
UniProt Q9NZQ7: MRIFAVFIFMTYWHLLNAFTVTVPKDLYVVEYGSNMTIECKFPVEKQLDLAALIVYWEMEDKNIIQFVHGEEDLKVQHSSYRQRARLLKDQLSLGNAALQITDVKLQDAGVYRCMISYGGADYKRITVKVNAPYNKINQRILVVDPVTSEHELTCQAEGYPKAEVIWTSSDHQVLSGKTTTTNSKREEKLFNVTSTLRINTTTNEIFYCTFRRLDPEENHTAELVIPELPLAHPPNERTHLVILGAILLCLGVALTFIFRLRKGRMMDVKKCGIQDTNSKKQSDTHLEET

These are yes or no findings as the source states them, for the method shown. Some binding calls cover weakened binding; strength is not graded here.

B1: QP1120 nanobody (VHH)
VHH: QVQLVESGGGSVQSGGSLRLSCAASGFTYGTYAMSWFRQAPGKEREGVACIDIYGRTSYTDPVKGRFTISQDNAKNTLYLQMNSLKPEDTAMYYCAARDFGYCTASWVHEGFSRYWGQGTQVTVSS
Regarding B1, the binding result is recorded as “binds”.

These data come from patent US20220242974A1 (QURE BIOTECHNOLOGY SHANGHAI, published 2022).
